The data set is described as follows: general procedure: peptide synthesis; CTL resin. The conditions noted are these: whole synthesis.

Where no end group is shown, it is not given here.

For “LCCGRGHRTRTQR (cysteine pairing not given here)”, the crude mass worked out at 0.65 g. Also, the crude yield (scale of the general procedure 700 mg resin) came to 92.6%.
